Data: publication PMC7565984, “A Phosphorylation-Induced Switch in the Nuclear Localization Sequence of the Intrinsically Disordered NUPR1 Hampers Binding to Importin” (Biomolecules, 2020)
Where a SMILES comes first, the peptide text is derived from it.

What was measured:
Impα3 = details: 60 K/h, peptide 10 μM, importin 4 μM
ΔImpα3 = experiment: Thermal denaturation of the ΔImpα3 complex followed by fluorescence and far-UV CD; design: species or system human; details: 60 K/h, peptide 10 μM, importin 4 μM
[1] = ellipticity at 222 nm, 298 to 343 K, pH 7.0
[2] = pH 7.0, 50-mM phosphate, 298 to 358 K

CC(=O)N[C@@H](Cc1ccc(O)cc1)C(=O)N[C@H](C(=O)N[C@@H](CC(N)=O)C(=O)N[C@@H](CCCNC(=N)N)C(=O)N1CCC[C@H]1C(=O)N[C@@H](CO)C(=O)N1CCC[C@H]1C(=O)NCC(=O)NCC(=O)N[C@@H](Cc1c[nH]cn1)C(=O)N[C@@H](CCC(=O)O)C(=O)N[C@@H](CCCNC(=N)N)C(=O)N[C@@H](CCCCN)C(=O)N[C@@H](CC(C)C)C(=O)N[C@H](C(=O)N[C@H](C(=O)N[C@@H](CCCCN)C(=O)N[C@@H](CC(C)C)C(=O)N[C@@H](CCC(N)=O)C(=O)N[C@@H](CC(N)=O)C(=O)N[C@@H](CO)C(=O)N[C@@H](CCC(=O)O)C(N)=O)[C@@H](C)O)C(C)C)[C@@H](C)O [wt] (Ac-YTNRPSPGGHERKLVTKLQNSE-NH2)
Difference in thermal denaturation midpoint between isolated Impα3 and the complex, far-UV CD (Impα3; [1]): no differences | Variation of the apparent thermal denaturation midpoint of Impα3 on complex formation, fluorescence (Impα3; [2]): did not show a variation | Difference in thermal denaturation midpoint between isolated ΔImpα3 and the complex, far-UV CD (ΔImpα3; [1]): no differences | Variation of the apparent thermal denaturation midpoint of ΔImpα3 on complex formation, fluorescence (ΔImpα3; [2]): did not show a variation
